# These are yes or no findings as the source states them, for the method shown. In cells and extracts the contact can be indirect. These calls come from enrichment with a bait or labelling near it, and not all partners need be listed.
# By UniProt entry, the sequences of proteins in these tests, tags left out. Where a name states a change or a piece, a line headed by the entry shows the natural chain unless it says otherwise.
# UniProt Q57W34: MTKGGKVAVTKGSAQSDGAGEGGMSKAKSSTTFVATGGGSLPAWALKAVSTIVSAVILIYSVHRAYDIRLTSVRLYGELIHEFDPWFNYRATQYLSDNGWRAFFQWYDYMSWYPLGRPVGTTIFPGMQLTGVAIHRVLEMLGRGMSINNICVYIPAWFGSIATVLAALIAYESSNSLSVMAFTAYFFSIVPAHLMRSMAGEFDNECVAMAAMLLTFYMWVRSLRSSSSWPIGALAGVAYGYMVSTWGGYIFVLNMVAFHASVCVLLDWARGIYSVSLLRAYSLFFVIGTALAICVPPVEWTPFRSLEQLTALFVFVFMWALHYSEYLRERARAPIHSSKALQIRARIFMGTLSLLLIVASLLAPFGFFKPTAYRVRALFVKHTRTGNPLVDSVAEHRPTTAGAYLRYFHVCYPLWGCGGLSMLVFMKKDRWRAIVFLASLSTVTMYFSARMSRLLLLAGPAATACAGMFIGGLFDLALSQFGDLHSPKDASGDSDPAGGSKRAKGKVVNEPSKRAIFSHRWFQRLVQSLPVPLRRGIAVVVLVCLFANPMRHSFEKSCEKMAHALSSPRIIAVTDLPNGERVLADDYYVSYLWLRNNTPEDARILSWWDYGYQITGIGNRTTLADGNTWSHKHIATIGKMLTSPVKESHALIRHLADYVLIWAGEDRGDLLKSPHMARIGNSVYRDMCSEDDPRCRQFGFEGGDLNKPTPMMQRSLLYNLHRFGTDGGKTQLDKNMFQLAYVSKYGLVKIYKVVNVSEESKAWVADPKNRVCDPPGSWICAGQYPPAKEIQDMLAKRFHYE
# UniProt Q57W35: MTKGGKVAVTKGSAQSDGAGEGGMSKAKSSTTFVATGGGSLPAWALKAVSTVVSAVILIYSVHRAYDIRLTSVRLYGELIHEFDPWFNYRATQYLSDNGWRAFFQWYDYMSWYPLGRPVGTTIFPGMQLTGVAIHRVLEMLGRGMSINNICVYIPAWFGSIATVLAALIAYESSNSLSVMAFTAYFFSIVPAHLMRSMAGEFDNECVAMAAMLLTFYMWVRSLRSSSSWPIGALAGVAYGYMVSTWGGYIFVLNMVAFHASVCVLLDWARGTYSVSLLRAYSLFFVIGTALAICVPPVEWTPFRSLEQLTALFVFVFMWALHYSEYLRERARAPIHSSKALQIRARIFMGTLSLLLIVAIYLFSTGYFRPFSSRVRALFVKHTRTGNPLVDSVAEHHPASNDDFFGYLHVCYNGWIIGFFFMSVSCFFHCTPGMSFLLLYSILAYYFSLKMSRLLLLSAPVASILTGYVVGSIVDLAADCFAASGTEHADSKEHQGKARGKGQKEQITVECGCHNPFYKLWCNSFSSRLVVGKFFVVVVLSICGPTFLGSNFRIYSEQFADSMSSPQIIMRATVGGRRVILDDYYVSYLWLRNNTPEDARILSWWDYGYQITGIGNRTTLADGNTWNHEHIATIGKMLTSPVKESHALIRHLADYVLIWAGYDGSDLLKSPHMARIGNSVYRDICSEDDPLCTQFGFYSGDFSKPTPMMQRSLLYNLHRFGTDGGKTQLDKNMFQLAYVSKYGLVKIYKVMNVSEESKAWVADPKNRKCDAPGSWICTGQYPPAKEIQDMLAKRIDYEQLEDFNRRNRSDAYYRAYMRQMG
# Biological target: TbSTT3A-HA3 (Trypanosoma brucei) (UniProt Q57W34)
# Test: affinity purification with mass spectrometry; SILAC: TbSTT3A-HA3 cells (heavy, R6K4) and wild-type cells (light, R0K0) mixed 1:1, lysed in 0.5% digitonin; anti-HA antibody and protein G magnetic beads; LC-MS/MS of the eluate
substance,measurement,value
TbSTT3B (from UniProt Q57W35) (enzyme),binding,binds

# Reference: paper PMC5724017
